Results taken from patent US4195018A (Nippon Kayaku Kabushiki Kaisha, priority 1977, dated 1980).

Assay: general procedure: peptide synthesis; CCBT / N-methylmorpholine (Example 1); NEPIS, N-ethoxycarbonyl-2-ethoxy-1,2-dihy
Settings: late stage modification step

“3-[(S)-1'-phenylethylamino]propylaminobleomycin” showed a step yield (dihydrochloride (copper-containing form)) of 92% yield, a step yield (dihydrochloride, monosulfate, diacetic acid salt, run 1) of 75% yield and a step yield (dihydrochloride, monosulfate, diacetic acid salt, run 2) of 56% yield. The step yield (dihydrochloride, monosulfate, diacetic acid salt, run 3) was 47% yield, the step yield (dihydrochloride, monosulfate, diacetic acid salt, run 4) was 12% yield and the step yield (dihydrochloride, monosulfate, diacetic acid salt, run 5) was 53% yield. It also gave a step yield (dihydrochloride, monosulfate, diacetic acid salt, run 6) of 46% yield, a step yield (dihydrochloride, monosulfate, diacetic acid salt, run 7) of 25% yield and a step yield (dihydrochloride, monosulfate, diacetic acid salt, run 8) of 90% yield. It also gave a step yield (dihydrochloride, monosulfate, diacetic acid salt, run 9) of 85% yield, a step yield (dihydrochloride, monosulfate, diacetic acid salt, run 10) of 63% yield and a step yield (dihydrochloride, monosulfate, diacetic acid salt, run 11) of 78% yield. It also gave a step yield (dihydrochloride, monosulfate, diacetic acid salt, run 12) of 73% yield, a step yield (dihydrochloride, monosulfate, diacetic acid salt, run 13) of 98% yield and a step yield (dihydrochloride, monosulfate, diacetic acid salt, run 14) of 96% yield. The step yield (dihydrochloride, monosulfate, diacetic acid salt, run 15) was 82% yield, the step yield (dihydrochloride, monosulfate, diacetic acid salt, run 16) was 96% yield and the step yield (monosulfate (copper-free form)) was 95% yield.
